Source: the supplement of paper PMC3334620
The full ranking holds about 33,000 sequences; the median of “E-score (-0.5 to 0.5)” is about -0.0014, and the highest 2% start at about 0.25. The list shows a part of the results.

Target: T1, Cad1 (UniProt P24813)
T1 sequence: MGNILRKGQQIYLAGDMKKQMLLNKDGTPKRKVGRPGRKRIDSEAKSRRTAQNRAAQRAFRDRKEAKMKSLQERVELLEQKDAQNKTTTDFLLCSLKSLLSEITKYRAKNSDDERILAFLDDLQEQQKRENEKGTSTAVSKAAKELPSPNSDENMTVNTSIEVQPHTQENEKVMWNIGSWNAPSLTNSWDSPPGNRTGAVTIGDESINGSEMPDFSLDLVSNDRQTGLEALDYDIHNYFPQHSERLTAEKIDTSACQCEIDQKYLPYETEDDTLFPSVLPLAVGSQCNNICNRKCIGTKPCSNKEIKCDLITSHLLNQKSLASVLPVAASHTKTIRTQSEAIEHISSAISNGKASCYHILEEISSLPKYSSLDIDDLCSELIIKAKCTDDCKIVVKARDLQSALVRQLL
Experiment: PBM E-score (8-mer binding enrichment) (E-score (-0.5 to 0.5)); higher = stronger / more preferred TF binding
Settings: protein concentration: 100 nM; construct: GST-full length
Method in brief: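 GST-tagged yeast TFs (full-length or DNA-binding domain) were made by PURExpress in vitro transcription/translation and applied at about 100-200 nM to universal all-10-mer Agilent arrays. The arrays were made double-stranded by primer extension, on fresh or once-stripped slides. Bound protein was detected with fluorescent anti-GST, and scans were normalised with masliner. Each ungapped eight-base word, pooled with its reverse complement, received an E-score (modified Wilcoxon-Mann-Whitney statistic) from the Universal PBM Analysis Suite.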

Going from CGCCCTGC to GAGGGAGA, the “PBM E-score” value falls from -0.128 to -0.15.

First: CGAGGTTA
Second: CCTTTTTA
The “PBM E-score” value of the first is higher: 0.049 for the first, -0.144 for the second.

Going from TGAGGCCA to ACTGTGCA, the “PBM E-score” value falls from 0.102 to -0.00185.

Compared with AGCCTACG, CATTGGAC is lower in “PBM E-score” value: 0.0943 for the first, 0.00015 for the second.

First: CGTAAATC
Second: TAAATGCA
The “PBM E-score” value of the first is lower: 0.0267 for the first, 0.14 for the second.

First: TAATTAAA
Second: GGAGTCCA
The “PBM E-score” value of the first is higher: 0.114 for the first, -0.162 for the second.

Going from ATCATTGG to CATCCCTC, the “PBM E-score” value rises from -0.0561 to -0.0431.

First: CAACGGCG
Second: AGTGTTGC
The “PBM E-score” value of the first is higher: 0.0982 for the first, 0.098 for the second.

First: AAGAGAAG
Second: AGCGTTGC
The “PBM E-score” value of the first is lower: -0.0243 for the first, 0.041 for the second.

Going from AGTCAGAG to TAATCGCA, the “PBM E-score” value rises from -0.058 to 0.214.

Going from AGGTTCGC to AATATGTA, the “PBM E-score” value rises from -0.197 to 0.206.

Compared with ACGACAGG, ACTCACCC is lower in “PBM E-score” value: -0.0126 for the first, -0.119 for the second.

First: ACTCCGCC
Second: TAGAACGA
The “PBM E-score” value of the first is lower: -0.0792 for the first, 0.0448 for the second.

First: ATACACCC
Second: CAAGTGAA
The “PBM E-score” value of the first is higher: 0.0749 for the first, 0.0676 for the second.

First: TGAACGAA
Second: CGTTTTAG
The “PBM E-score” value of the first is higher: 0.0808 for the first, -0.0529 for the second.

Compared with GGACCACA, AAAGTGTT is higher in “PBM E-score” value: 0.137 for the first, 0.201 for the second.

Going from GCTCAGGA to ACGAAGTA, the “PBM E-score” value falls from 0.0805 to -0.0512.

Going from ACTCGGGG to GGACTGTA, the “PBM E-score” value rises from -0.188 to -0.0478.

Compared with ACATCGCT, CGGCAAAC is higher in “PBM E-score” value: 0.0942 for the first, 0.181 for the second.

Compared with AATGCGGT, CCTCCAGA is lower in “PBM E-score” value: -0.0537 for the first, -0.208 for the second.

Going from AGGCAGAT to AGGTTCCA, the “PBM E-score” value falls from -0.0371 to -0.102.
